# The other results are listed elsewhere or left out.
# System: T1, CTL2-GFP (C. trachomatis L2/434/Bu, GFP-expressing)
# T1 construct: L2/434/Bu, GFP-expressing
# Parameters: species or system HeLa; Intracellular C. trachomatis growth in HeLa cells, bulk GFP fluorescence relative to DMSO
# Settings: bulk GFP, single well; 28.5 h, 10 µM; inhibitor
row,SMILES,% of control remaining
1,CCCC(=O)NCC(C)c1nsc(NS(=O)(=O)c2cccc(Cl)c2C)n1 (centres unmarked) [CBK200053],93.8622%
2,O=C(O)c1cccc(Nc2nc(Nc3ccccc3)nc(N3CCCC3)n2)c1 [CBK286863],109.13%
3,COc1ccc2c(c1)nc1n2CCC1OC(C)=O (centres unmarked) [CBK115379],123.305%
4,Cc1cc(C)n(-c2ccccc2O)n1 [CBK026493],120.617%
5,OCCOc1ccc(Cl)c2cccnc12 [CBK000620],139.059%
6,CC1CCN(CC(O)c2ccc3c(c2)CCN3C(=O)C2CC2)CC1 (centres unmarked) [CBK282927],95.0258%
7,CC(=O)Nc1ccc(N2CCN(CCO)CC2)cc1OCCCOc1ccccc1 [CBK074317T],70.7793%
8,CCN(CCC(F)(F)F)C(=O)Cc1csc(NC(=O)c2ccoc2C)n1 [CBK305729],123.982%
9,CCNC(=O)N1CCC(Oc2cc(C)ccc2F)(C(=O)O)CC1 [CBK307147],121.576%
10,COc1cccc(OCC2CCCN(C(=O)CCc3cnn(C)c3)C2)c1 (centres unmarked) [CBK306931],143.571%
11,Cn1c(=O)c2c(nc(CN3CCCCC3)n2CC(=O)c2ccccc2)n(C)c1=O [CBK269563],118.103%
12,CCCS(=O)(=O)n1c(=O)n(Cc2ccc(OC)cc2)c2ccccc21 [CBK106553],160.524%
13,CCC1CCCN(C(=O)Cc2c(C)nc(-c3cccnc3)[nH]c2=O)C1 (centres unmarked) [CBK305801],111.072%
14,N#CCCc1ccc(Oc2ncc(C(F)(F)F)cc2Cl)cc1 [CBK161635],97.3692%
15,Cc1cccc(C)c1N1C(=O)c2ccccc2NC12C(=O)Nc1ccc([N+](=O)[O-])cc12 (centres unmarked) [CBK103749],130.181%
16,O=C(O)c1ccc(CN2CCC3(C/C=C/CNC(=O)c4ccccc4OCCNC3=O)CC2)cc1 [CBK292002],113.692%
17,CN1CCN(C)C(COc2ccc(C(F)(F)F)cn2)C1 (centres unmarked) [CBK113288],139.537%
18,CNc1nc(C2CCN(C(=O)c3ccc(N4CCC(C)CC4)cc3)C2)nc2c1CCN(C)C2 (centres unmarked) [CBK285835],120.765%
19,Cn1c(=O)c2c(nc(NCCOCCO)n2C)n(C)c1=O [CBK288164],111.366%
20,Cc1nn(-c2ccc(N3CCNCC3)nn2)c(=O)c2ccccc12 [CBK270067],155.375%
21,CCn1c(=O)n(CC(=O)NCc2cccc(F)c2)c2cccnc21 [CBK283891],99.4883%
22,Cc1ccc(S(=O)(=O)c2cccc(S(N)(=O)=O)c2)cc1S(N)(=O)=O [CBK264535],127.96%
23,Clc1ccccc1CSc1nc[nH]n1 [CBK026950],102.538%
24,COC(=O)c1ccccc1NC(=O)C(C)Oc1ccc(Cl)cc1C (centres unmarked) [CBK262388],131.668%
25,CCOc1cc(/C=C2\N=C(c3ccc(OC)cc3)OC2=O)cc(Br)c1OCC(=O)OC [CBK102552],115.746%
26,COCCc1noc(CC2CCN(c3ncncc3C#N)CC2)n1 [CBK304178],115.618%
27,COC(=O)c1ccsc1NS(=O)(=O)c1cc(F)c(Br)cc1F [CBK039068],154.751%

row,SMILES,% of control remaining
1,O=C(NCCCn1ccnc1)c1cc2c(ccc3ccccc32)oc1=O [CBK263543],100%
2,O=C(Nc1ccc(-c2nc3cc(-c4nc5cc(NC(=O)c6cccs6)ccc5[nH]4)ccc3[nH]2)cc1)c1cccs1 [CBK261614],100%
3,COCc1nnc(Sc2nccc(C(F)(F)F)n2)s1 [CBK093790],103.515%
4,CC(=O)N1CCN(CC[C@@H]2CC[C@H](O)[C@@H](C(=O)N(C)Cc3ccccc3)O2)CC1 [CBK288716],103.596%
5,CS(=O)(=O)Nc1ccc2cc(-c3ccsc3)cnc2n1 [CBK085665],117.622%
6,O=C(Cn1cccc(C(=O)NC2CCCCC2)c1=O)Nc1nc2c(s1)CCCCC2 [CBK286056],137.684%
7,Cc1ccn2cc(CNC(=O)CCC(C)N3CCN(C)CC3)nc2c1 (centres unmarked) [CBK306628],131.983%
8,CCn1c(CN2CCC(n3nc(C)cc3C)CC2)nc2ccccc21 [CBK281615],110.143%
9,Cc1cc2c(s1)c1cnn(Cc3ccncc3)c(=O)c1n2C [CBK284188],101.003%
10,O=C(CSc1nnc(Cc2ccccc2)n1-c1ccc(Cl)cc1)Nc1cc(Cl)ccc1O [CBK269061],154.543%
11,OCC1CCC(O)C(CO)N1 (centres unmarked) [CBK022827C],110.417%
12,O=C(O)c1cccc(NC(=O)c2cc(-n3cnnc3)ccc2Cl)c1 [CBK268026],103.941%
13,C[S+]([O-])CCn1c2ccccc2c2c(N3CCCC3)nc(N3CCCC3)nc21 (centres unmarked) [CBK017586],123.832%
14,COCCn1c(SC(C)C(=O)N2CCNC2=O)nc2ccccc21 (centres unmarked) [CBK305832],107.034%
15,COc1ccc(-c2nc(=S)c3c(n2CCCN(C)C)CC(C)(C)OC3)cc1 [CBK267844],123.71%
16,Oc1ccc(-c2n[nH]c(C(F)(F)F)c2Oc2ccc(F)cc2)c(O)c1 [CBK264440],85.452%
17,COc1cccc(CNCC2CCCO2)c1OCc1ccccc1 (centres unmarked) [CBK269798C],68.8621%
18,Cc1nccn1CCC(=O)NC(c1ccncc1)c1cccs1 (centres unmarked) [CBK281440],130.73%
19,CCCC/C=C/c1cc(NCCC)n2nccc2n1 [CBK037127],78.2444%
20,O=S(=O)(c1ccc(-c2ccccc2)cc1)N1CCCN(Cc2ccc(F)c(C(F)(F)F)c2)CC1 [CBK063115],103.873%
21,CCCS(=O)(=O)N1Cc2c(ncn2C)C[C@H]1C(=O)OC [CBK288991],152.459%
22,O[C@H]1[C@H](NCC2CC2)[C@H]2CO[C@H](O2)[C@@H]1N1CCOCC1 [CBK288819],141.455%
23,COc1ccc(CCNC(=O)CCCc2cn(C)c3ccccc23)cc1OC [CBK061740],106.548%
24,Cc1c(CN(Cc2ccccc2)CC2CCCO2)cnn1C (centres unmarked) [CBK283263],112.81%
25,CCC(C)(CC(=O)O)CC(=O)N1CCC2(CC1)OCCc1c2[nH]c2ccccc12 (centres unmarked) [CBK047051],116.781%
26,O=C(Nn1cnnc1)c1cccc(C(=O)Nn2cnnc2)c1 [CBK091759],110.822%
27,CCSc1nc(SCC)c2c3c([nH]c2n1)CCCC3 [CBK019936],122.647%

row,SMILES,% of control remaining
1,Cn1c(-c2ccc(-c3nc4cnccc4n3C)cc2)nc2cnccc21 [CBK261423],119.346%
2,Cc1ccc(OCC(O)CN(C)S(=O)(=O)O)c([N+](=O)[O-])c1 (centres unmarked) [CBK262062K],98.0683%
3,CN1CCN(c2ccc(-c3cc(NC4CCCCC4)ncn3)cn2)CC1 [CBK090899],85.2861%
4,COCCn1c(SC(C)C(=O)NC2CC2)nc2ccc(Br)cc2c1=O (centres unmarked) [CBK305481],102.592%
5,O=C(NCc1c(F)cccc1F)C1(c2ccccc2)CCCC1 [CBK149527],70.8491%
6,COc1ccc(C)cc1NS(=O)(=O)CC(C)C [CBK111346],69.3395%
7,COc1cc(CN2CCNCC2)c2ccn(S(=O)(=O)c3cccc(Cl)c3C)c2c1 [CBK144484T],48.7932%
8,CCOc1ccc(C(=O)NC2CC3CCC(C2)N3Cc2ccc(OC)cc2)cc1 (centres unmarked) [CBK121398],125.496%
9,CC(=O)N(C)c1nc(-c2ccco2)ccc1C(=O)Nc1cc(C)nn1C [CBK106356],138.031%
10,CSCCC(NC(=O)c1ccc(C#CC(C)(C)O)cc1)C(=O)O (centres unmarked) [CBK276698],132.053%
11,CCOC(=O)CN1CCC(Oc2cncc(Oc3ccc(OC)c(OC)c3)n2)C1 (centres unmarked) [CBK084405],126.563%
12,CCCC(=O)Nc1cccnc1N1CCNCC1 [CBK004732T],123.035%
13,C[N+]1(CC(=O)c2ccccc2)C2CCC1CC(OC(=O)C(O)c1ccccc1)C2 (centres unmarked) [CBK022712C],124.512%
14,COCCc1nc(CN(C)C)n(Cc2ccccc2C)n1 [CBK307014],172.465%
15,Cc1ccc(N(CC(O)CN2CCCC2)S(=O)(=O)c2ccccc2)cc1 (centres unmarked) [CBK264739],112.776%
16,CCCC(=O)N1CCC(Cc2ccc(-c3cccc(C)c3)cc2)(C(=O)NC(C)C)CC1 [CBK285760],142.101%
17,O=C(Nc1nc2ccccc2s1)NC1CC1 [CBK007542],98.3197%
18,O=C(O)CCn1c(CO)nc2ccccc21 [CBK111473],90.06%
19,CC(=O)OC(C(=O)O)C(OC(C)=O)c1nc2ccccc2s1 (centres unmarked) [CBK264076],97.7857%
20,COC(=O)c1ccc(C(=O)OC)c(NC(=O)C2CCCCC2C(=O)O)c1 (centres unmarked) [CBK265422],100%
21,CC(C)(C)C(=O)N1CCc2cc(C(O)CN3CCCC3)ccc21 (centres unmarked) [CBK282923],115.756%
22,Cc1ccc(NC(=O)COC(=O)CCc2c[nH]c(=O)[nH]2)cc1 [CBK265562],101.356%
23,COc1cc(CC(=O)N2CCc3c(sc4ncnc(N)c34)C2)ccc1C [CBK306013],117.23%
24,Cc1ccc(N(C(=O)COc2ccc(C(C)(C)C)cc2)C2C=CS(=O)(=O)C2)cc1 (centres unmarked) [CBK265811],115.159%
25,Cc1cc(O)cc(C2CCCN(C(=O)CC3CCCC3)C2)n1 (centres unmarked) [CBK283422],121.162%
26,CCS(=O)(=O)c1nc2ccccc2n1CC(=O)Nc1ccccc1C(=O)OC [CBK267877],97.7978%

# For convenience, 6 of the compounds above.
row,SMILES,% of control remaining
17,O=C(Nc1nc2ccccc2s1)NC1CC1 [CBK007542],98.3197%
18,O=C(O)CCn1c(CO)nc2ccccc21 [CBK111473],90.06%
19,CC(=O)OC(C(=O)O)C(OC(C)=O)c1nc2ccccc2s1 (centres unmarked) [CBK264076],97.7857%
20,COC(=O)c1ccc(C(=O)OC)c(NC(=O)C2CCCCC2C(=O)O)c1 (centres unmarked) [CBK265422],100%
21,CC(C)(C)C(=O)N1CCc2cc(C(O)CN3CCCC3)ccc21 (centres unmarked) [CBK282923],115.756%
22,Cc1ccc(NC(=O)COC(=O)CCc2c[nH]c(=O)[nH]2)cc1 [CBK265562],101.356%
